No constants are given. Whether binding was seen depends on the method and setting. Binding seen in cells or lysates may run through a third protein. Some entries that bind do so weakly or less than the wild type. Sequences can lack the tags named with a protein.
Molecular target: T1, Hspa13-V5 (mouse) (UniProt Q8BM72)
T1 sequence: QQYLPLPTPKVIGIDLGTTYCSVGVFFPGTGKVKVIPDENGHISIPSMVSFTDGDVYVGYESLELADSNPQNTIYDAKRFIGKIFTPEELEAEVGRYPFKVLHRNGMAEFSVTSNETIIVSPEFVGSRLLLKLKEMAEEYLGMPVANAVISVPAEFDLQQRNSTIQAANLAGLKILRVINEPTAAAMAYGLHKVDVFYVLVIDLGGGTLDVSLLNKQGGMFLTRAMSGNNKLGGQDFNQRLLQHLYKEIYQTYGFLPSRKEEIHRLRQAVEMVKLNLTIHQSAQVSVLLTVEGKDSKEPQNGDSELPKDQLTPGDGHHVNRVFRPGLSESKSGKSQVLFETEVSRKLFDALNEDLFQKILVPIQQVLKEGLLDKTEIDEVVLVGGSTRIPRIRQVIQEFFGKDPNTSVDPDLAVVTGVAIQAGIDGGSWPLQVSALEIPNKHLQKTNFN
Assay: co-IP; Hspa13-V5 and Bcap31-Flag transiently co-transfected into 293T cells; lysed 48 h after transfection; immunoprecipitated with anti-V5 antibody, probed with anti-Flag antibody

B1: Bcap31-Flag (protein, UniProt Q61335 1-245)
chain: MSLQWTTVATFLYAEVFAVLLLCIPFISPKRWQKVFKSRLVELVVTYGNTFFVVLIVILVLLVIDAVREILKYDDVTEKVNLQNNPGAMEHFHMKLFRAQRNLYIAGFSLLLSFLLRRLVTLISQQATLLASNEAFKKQAESASEAAKKYMEENDQLKKGAAEDGDKLDIGNTEMKLEENKSLKNDLRKLKDELASTKKKLEKAENEALAMQKQSEGLTKEYDRLLEEHAKLQASVRGPSVKKEE
- binding: binds
